The values below come from the supplement of paper PMC11060735.

Structures can show the parent of a compound that is named as a salt. ± gives the standard deviation of the averaged measurements. Over roughly 1,800 compounds, “GFP- (p16Ink4a-) cell count relative to negative-control wells” has its median near 0.99; the lowest 2% begin near 0.5. Some of the results follow.

The test system of this assay is mouse p16Ink4a+/- lung fibroblasts (INKBRITE, bleomycin-injured). Description: GFP- (p16Ink4a-) cell count relative to negative-control wells (fold of vehicle); higher = more p16Ink4a- cells surviving. The following applies: 1 µM; 3 days.
`CC(C(=O)O)c1ccc2c(c1)CC(=O)c1ccccc1S2` (stereo unspecified) [Zaltoprofen] yielded a GFP- of 1.01.

The compound `c1ccc2c(Oc3nc(Nc4ccc(N5CCOCC5)cc4)c4ncn(C5CCCCC5)c4n3)cccc2c1` [Purmorphamine] gave a GFP- of 1.22.

`COC(=O)C1=CO[C@@H](O[C@@H]2O[C@H](CO)[C@@H](O)[C@H](O)[C@H]2O)[C@@H]2C(CO)=CC[C@H]12` [Geniposide] came in with a GFP- of 0.964.

`CC(c1cc2ccccc2s1)N(O)C(N)=O` (stereo unspecified) [Zileuton]: the GFP- was found to be 1.16.

In turn, `COc1ccc(Cl)cc1NC(=O)Nc1cc(C)nc2ccccc12` displayed a GFP- of 0.935.

For the compound `C=C[C@H]1CN2CC[C@H]1C[C@H]2[C@H](O)c1ccnc2ccc(OC)cc12` [Quinine], the GFP- was determined as 1.05.

With `C[C@@H]1[C@H](O)[C@@H](C)/C=C/C=C/C=C/C=C/C=C/C=C/C=C/[C@H](O[C@@H]2O[C@H](C)[C@@H](O)[C@H](N)[C@@H]2O)C[C@@H]2O[C@](O)(C[C@@H](O)C[C@@H](O)[C@H](O)CC[C@@H](O)C[C@@H](O)CC(=O)O[C@H]1C)C[C@H](O)[C@H]2C(=O)O` [Amphotericin B], the GFP- was determined as 0.996.

`O=c1c(O)c(-c2ccc(O)cc2O)oc2cc(O)cc(O)c12` [Morin] showed a GFP- of 0.998.

With `C[C@@H]1C/C=C/C=C/C=C/C=C/C(O[C@@H]2O[C@H](C)[C@@H](O)[C@H](N)[C@@H]2O)C[C@@H]2O[C@](O)(C[C@@H](O)C[C@H]3O[C@@H]3/C=C/C(=O)O1)C[C@H](O)[C@H]2C(=O)O` (stereo partly specified) [Natamycin], the GFP- turned out to be 0.978.

Compound `CCN(CC)CCCC(C)Nc1c2ccc(Cl)cc2nc2ccc(OC)cc12` (stereo unspecified) [Quinacrine] yielded a GFP- of 0.987.

In turn, `O=C(O)CCc1ccc(NCc2cccc(Oc3ccccc3)c2)cc1` registered a GFP- of 0.98.

As to `O=C1CCc2cc(OCCCCc3nnnn3C3CCCCC3)ccc2N1` [Cilostazol], the GFP- came to 1.09.

`N#Cc1ccc2[nH]cc(CCCCN3CCN(c4ccc5oc(C(N)=O)cc5c4)CC3)c2c1` [Vilazodone] came in with a GFP- of 1.07.

`CCCCC1=NC2(CCCC2)C(=O)N1Cc1ccc(-c2ccccc2-c2nn[nH]n2)cc1` [Irbesartan] gave a GFP- of 0.918.

In turn, `CN1CCC(=C2c3ccccc3CCc3cccnc32)CC1` [Azatadine] gave a GFP- of 0.964.

In the case of `COc1ccc([C@@H]2CC(=O)c3c(O)cc(O)cc3O2)cc1O` [Hesperetin], the GFP- is 0.837.

For the compound `CC(C)=CCC[C@](C)(O[C@@H]1O[C@H](CO[C@@H]2OC[C@@H](O)[C@H](O)[C@H]2O)[C@@H](O)[C@H](O)[C@H]1O)[C@H]1CC[C@]2(C)[C@@H]1[C@H](O)C[C@@H]1[C@@]3(C)CC[C@H](O[C@@H]4O[C@H](CO)[C@@H](O)[C@H](O)[C@H]4O)C(C)(C)[C@@H]3CC[C@]12C` [Gynostemma Extract], the GFP- was 1.07.

As for `C[C@H](NC(=O)/C(C#N)=C/c1cccc(Br)n1)c1ccccc1`, the GFP- amounted to 0.999 ± 0.049.

For the compound `COc1cc(/C=C/C(=O)O)ccc1O` [Ferulic Acid], the GFP- was found to be 1.01.

`O=C(O[C@@H]1Cc2c(O)cc(O)cc2O[C@@H]1c1cc(O)c(O)c(O)c1)c1cc(O)c(O)c(O)c1` [Epigallocatechin-3-monogallate] had a GFP- of 1.06.

The compound `O=C(O)C1=CC(O)C(O)[C@H](O)C1` (stereo partly specified) [Shikimic Acid] displayed a GFP- of 1.31.

Consider `NC[C@H]1CC[C@@H](C(=O)O)CC1` [Tranexamic Acid], for which the GFP- stood at 0.988.

On to `O=C(O)CCc1nc(-c2ccccc2)c(-c2ccccc2)o1` [Oxaprozin], for which the GFP- came to 1.04.

Regarding `CNCc1ccc(-c2cc(-c3nc(-c4ccc(S(=O)(=O)C(C)C)cc4)cnc3N)on2)cc1`, the GFP- was 1.03.

Compound `CCOC(=O)c1ccc(N)cc1` [Benzocaine] showed a GFP- of 0.902.

Turning to `NC(=O)c1cccc(-c2cccc(OC(=O)NC3CCCCC3)c2)c1`, the GFP- is 1.08.

Regarding `CCOC(=O)[C@H](CCc1ccccc1)N[C@H]1CCCN2CCC[C@@H](C(=O)O)N2C1=O` [Cilazapril], the GFP- was determined as 1.04.

For the compound `CCOc1ccc2nc3cc(N)ccc3c(N)c2c1` [Ethacridine Lactate], the GFP- is 0.84.

For `CC1(C)CCC(c2ccc(Cl)cc2)=C(CN2CCN(c3ccc(C(=O)NS(=O)(=O)c4ccc(N[C@H](CCN5CCOCC5)CSc5ccccc5)c(S(=O)(=O)C(F)(F)F)c4)cc3)CC2)C1` [Navitoclax], the GFP- turned out to be 0.944.

As for `CC(C)c1nc(CN(C)C(=O)N[C@H](C(=O)N[C@@H](Cc2ccccc2)C[C@H](O)[C@H](Cc2ccccc2)NC(=O)OCc2cncs2)C(C)C)cs1` [Ritonavir], the GFP- worked out at 0.998.

With `C[N+](C)(C)CCOC(=O)CCC(=O)OCC[N+](C)(C)C` [Succinylcholine], the GFP- worked out at 0.884.

As to `COc1cc2ncc(-c3ccccc3)nc2cc1OC` [Tyrphostin AG], the GFP- came out at 0.792.

For the compound `Cc1c(Cl)cccc1Nc1ccccc1C(=O)O` [Tolfenamic Acid], the GFP- was found to be 1.16.

In the case of `C/C(=C\c1ccc(C(=O)O)cc1)c1ccc2c(c1)C(C)(C)CCC2(C)C`, the GFP- turned out to be 1.02.

Take `CCO/C(O)=C1\C(C)=NC(C)=C(C(=O)OC)C1c1cccc(Cl)c1Cl` (stereo unspecified) [Felodipine]: the GFP- came out at 0.531.

In turn, `C[C@@H]1O[C@@H](OC[C@H]2O[C@@H](Oc3c(-c4ccc(O)c(O)c4)oc4cc(O)cc(O)c4c3=O)[C@H](O)[C@@H](O)[C@@H]2O)[C@H](O)[C@H](O)[C@H]1O` [Rutin] showed a GFP- of 1.05.

Take `Cc1cc(=O)oc2cc(O)ccc12` [7-hydroxy-4-methyl-2H-chromen-2-one]: the GFP- stood at 1.08.

In the case of `CCc1cccc2c3c([nH]c12)[C@@](CC)(CC(=O)O)OCC3` [Etodolac], the GFP- turned out to be 1.06.

For the compound `OCCn1cc(-c2cnc3nnn(Cc4ccc5ncccc5c4)c3n2)cn1`, the GFP- was found to be 0.998.

In turn, `Nc1ncnc2c1ncn2[C@@H]1O[C@H](CO)[C@@H](O)[C@@H]1O` [Vidarabine] gave a GFP- of 1.

On to `CCC1=C(C)CN(C(=O)NCCc2ccc(S(=O)(=O)NC(=O)N[C@H]3CC[C@H](C)CC3)cc2)C1=O` [Glimepiride], for which the GFP- was 1.36.

`COc1cc(NC(C)CCCN)c2ncccc2c1` (stereo unspecified) [Primaquine] registered a GFP- of 0.781.

The compound `CCOc1ccc(NC(C)=O)cc1` [Phenacetin] displayed a GFP- of 1.08.

The compound `CCN(CC)CCOc1ccc(/C(=C(\Cl)c2ccccc2)c2ccccc2)cc1` [Clomiphene] came in with a GFP- of 1.16.

In turn, `O=c1sn(-c2cccc3ccccc23)c(=O)n1Cc1ccccc1` [Tideglusib] returned a GFP- of 0.92.

Compound `N#Cc1c(O)nc2scc(-c3ccc(-c4ccccc4O)cc3)c2c1O` had a GFP- of 1.

As for `CC(C)[N+]1(C)C2CCC1CC(OC(=O)C(CO)c1ccccc1)C2` (stereo unspecified) [Ipratropium Bromide], the GFP- was determined as 1.03.

`Cn1cc(/C=C2/C(=O)Nc3cccnc32)c2ccccc21`: the GFP- turned out to be 1.18.

As for `CC[C@@H](CO)NCCN[C@@H](CC)CO` [Ethambutol], the GFP- was determined as 0.975.

In turn, `O=c1c(O)c(-c2ccc(O)cc2)oc2cc(O)cc(O)c12` [Kaempherol] showed a GFP- of 0.955.

In turn, `CCCCc1oc2ccccc2c1C(=O)c1cc(I)c(OCCN(CC)CC)c(I)c1` [Amiodarone] registered a GFP- of 0.9.

With `COc1nc(C)nc(Cl)c1NC1=NCCN1` [Moxonidine, Moxonidine Hydrochloride], the GFP- is 1.04.

Consider `COc1ccc(Cl)cc1C(=O)NCCc1ccc(S(=O)(=O)NC(=O)NC2CCCCC2)cc1` [Glibenclamide, Glyburide], for which the GFP- came out at 0.901.

With `Cc1cc2c(F)c(Oc3ncnn4cc(OC[C@@H](C)O)c(C)c34)ccc2[nH]1` [Brivanib], the GFP- is 1.09.

As for `CC(C)(Cc1ccc2ccccc2c1)NC[C@@H](O)COc1cccc(Cl)c1C#N`, the GFP- came out at 1.11.

With `S=C=Nc1cccc(NC(=S)NCCCCNC(=S)Nc2cccc(N=C=S)c2)c1`, the GFP- is 0.87.

The compound `O=C(O)/C(Cc1ccccc1[N+](=O)[O-])=N/Nc1nc(-c2ccc(Cl)c(Cl)c2)cs1` had a GFP- of 1.11.

For the compound `O=c1cc(-c2ccccc2)oc2cc(O)cc(O)c12` [Chrysin], the GFP- was determined as 0.996.

Consider `O=c1cc(-c2cccc3c2Sc2ccccc2S3)oc(N2CCOCC2)c1` [ATM Kinase Inhibitor], for which the GFP- was determined as 0.911.

The compound `C[C@@H](Oc1cc(-c2cnn(C3CCNCC3)c2)cnc1N)c1c(Cl)ccc(F)c1Cl` [Crizotinib] showed a GFP- of 0.915.

Consider `CC[C@@H]1C(=O)N(C)c2cnc(Nc3ccc(C(=O)N[C@H]4CC[C@H](N5CCN(CC6CC6)CC5)CC4)cc3OC)nc2N1C(C)C` [Volasertib], for which the GFP- is 0.773.

Take `CC(C(=O)O)c1ccc2c(c1)[nH]c1ccc(Cl)cc12` (stereo unspecified) [Carprofen]: the GFP- is 1.03.

As to `CNC(=O)[C@H](Cc1c[nH]c2ccccc12)NC(=O)[C@@H](CC(=O)NO)CC(C)C`, the GFP- stood at 1.15.

In the case of `N#C/C(=C(/N)Sc1ccc(N)cc1)c1ccccc1C(F)(F)F`, the GFP- amounted to 0.961.

`N=C(N)c1ccc(N=NNc2ccc(C(=N)N)cc2)cc1` [Diminazene] yielded a GFP- of 0.868.

Consider `CN1CCN(c2nc(C3=C(c4c[nH]c5ccccc45)C(=O)NC3=O)c3ccccc3n2)CC1` [Sotrastaurin], for which the GFP- is 0.861.

The compound `NC(=O)c1cccc(N)c1` [3-aminobenzamide] had a GFP- of 1.08 ± 0.15.

The compound `CC(C)c1cc(-c2ccc(F)c3ccccc23)nc(N)n1` had a GFP- of 0.927.

`CC[C@H](Nc1ncnc2[nH]cnc12)c1nc2cccc(F)c2c(=O)n1-c1ccccc1` [Idelalisib] had a GFP- of 0.99.

Take `CCCCCCCCCCCC[N+](C)(C)CCOc1ccccc1` [Domiphen]: the GFP- turned out to be 0.836.

Compound `COc1cc2ncnc(Oc3cccc(NC(=O)Nc4cc(C(C)(C)C(F)(F)F)on4)c3)c2cc1OC` yielded a GFP- of 1.04.

`CC(C)(C)c1nc(-c2cccc(NS(=O)(=O)c3c(F)cccc3F)c2F)c(-c2ccnc(N)n2)s1` [Dabrafenib] had a GFP- of 0.448.

The compound `Cc1c(NC(=O)OC[C@@H]2COCCN2)cn2ncnc(Nc3ccc4c(cnn4Cc4cccc(F)c4)c3)c12` had a GFP- of 0.927.

Consider `Cc1nc(O)c(C#N)cc1-c1ccncc1` [Milrinone], for which the GFP- was 1.22.

`CC1=NN(c2ccccc2)C(=O)C1` [3-methyl-1-phenyl-2-pyrazolin-5-one (mci-186), Edaravone] returned a GFP- of 1.06.

Compound `C=C1C(=O)O[C@@H]2/C=C(\C)CC/C=C(\C)CC[C@@H]12` [Costunolide] had a GFP- of 1.1.
